{"source": "PubChem BioAssay AID1347075", "about": "(National Center for Advancing Translational Sciences (NCATS), 2019)", "note": "The whole screen tested about 400,000 compounds, of which about 5,500 (1.4%) were called active. Inconclusive means that the source gave no clear call. Such entries were picked first, then a sample of the others. Calls come from the whole dose curve; as a rule, active = well fitted cell-killing curve with a large enough effect; inconclusive = small, poorly fitted or top-dose-only effect, or effect the other way; inactive = flat fitted curve, though single readings scatter. Where the call is inconclusive, the potency comes from a doubtful curve fit. % is set by controls: 0 for no effect and ±100 for the full control effect; potency is the fitted concentration of half-maximal effect.", "data": [{"test": "qHTS assay for MDR1-selective chemotherapeutics: Primary screen using the parental adenocarcinoma cell KB-3-1; note: nearly all actives have a fitted effect of over 60% in size", "conditions": "KB-3-1 viability, CellTiter-Glo ATP luminescence, 72 h; activity change, negative = cytotoxic: at 46.1 µM (top of the series)", "how_it_was_run": "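Parental KB-3-1 viability, qHTS format: 72 h compound exposure, 37 °C; CellTiter-Glo; media-only wells and DMSO plates as controls; concentration-effect fits on corrected data.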", "values": [{"smiles": "COc1ccc(C(C(=O)NCc2ccccc2)n2c(=O)c(-c3ccccc3)nc3ccccc32)cc1", "note": "(stereo not given)", "Potency": "inconclusive: 23.1 µM [cytotoxic, single point]"}, {"smiles": "COC(=O)c1ccc(Cl)c(NS(=O)(=O)c2ccc3c(c2)OCCO3)c1", "Potency": "active: 5.8 µM"}, {"smiles": "Cc1cccc(C)c1NC(=O)C(C1CC1)n1c(-c2ccc(-c3ccccc3)cc2)nc2ccccc21", "note": "(stereo not given)", "activity change, negative = cytotoxic": "inactive: -10.2%"}, {"smiles": "CCOC(=O)/C(=C\\c1cccc(O)c1)c1nc2sc(C)c(C)c2c(=O)[nH]1", "Potency": "inconclusive: 25.9 µM [cytotoxic, single point]"}, {"smiles": "Cc1ccc(C)c(OCC(O)CN2CCN(CCN3C(=O)c4cccc5cccc(c45)C3=O)CC2)c1", "note": "(stereo not given)", "Potency": "active: 16.4 µM"}, {"smiles": "Nc1[nH]c(C(=O)c2ccccc2)c(-c2ccccc2Br)c1C(=O)NCCc1ccc(Cl)cc1Cl", "Potency": "inconclusive: 23.1 µM [cytotoxic, single point]"}, {"smiles": "COc1ccc(NC(=O)CSc2nc3ccccc3n2CC(=O)Nc2cccc(C)c2C)cc1", "activity change, negative = cytotoxic": "inactive: 1.02%"}, {"smiles": "NC(=O)c1ccccc1NC(=S)NC(=O)c1ccc(Br)o1", "Potency": "inconclusive: 29.1 µM [rising, single point]"}, {"smiles": "O=[N+]([O-])c1ccc(Cl)c(S(=O)(=O)NCCc2ccccn2)c1", "Potency": "inconclusive: 23.1 µM [cytotoxic, single point]"}, {"smiles": "O=C(c1ccco1)N1CCN(c2ncnc3c2cnn3-c2ccccc2)CC1", "Potency": "inconclusive: 29.1 µM [cytotoxic, single point]"}, {"smiles": "Cc1nc2sc(C(=O)c3ccccc3)c(N)c2c2c1CCCC2", "Potency": "active: 23.1 µM"}, {"smiles": "Cn1nc(CC#N)c2c(=N)n(N)cnc21", "activity change, negative = cytotoxic": "inactive: -6.22%"}, {"smiles": "CCc1cc2c(=O)c(-c3ccc4c(c3)OCCO4)c(C)oc2cc1OS(C)(=O)=O", "Potency": "inconclusive: 20.6 µM [cytotoxic, single point]"}, {"smiles": "CN(Cc1ccccc1)C(=O)C1CCCN(Cc2cccc(Cl)c2)C1", "note": "(stereo not given)", "Potency": "inconclusive: 29.1 µM [cytotoxic, single point]"}, {"smiles": "Cc1cccc(C(=O)Nc2sc3c(c2C(=O)O)CCC3)c1", "Potency": "inconclusive: 20.6 µM [cytotoxic, single point]"}, {"smiles": "O=C(/C=C/c1ccccn1)c1cc(Cl)cc(Cl)c1O", "Potency": "inconclusive: 29.1 µM [cytotoxic, single point]"}, {"smiles": "C[C@@H](NC(=O)c1nc[nH]c1C(=O)N[C@@H](CCCCNC(=O)OC(C)(C)C)C(=O)OC(C)(C)C)c1ccccc1", "Potency": "inconclusive: 20.6 µM [cytotoxic, single point]"}, {"smiles": "O=C(NCc1ccccc1)c1cccc(COc2ccc(Cl)cc2)c1", "activity change, negative = cytotoxic": "inactive: 0%"}, {"smiles": "O=C(COC(=O)CC1CCCC1)Nc1cc2c(cc1Cl)C(=O)c1ccccc1C2=O", "Potency": "inconclusive: 29.1 µM [cytotoxic, single point]"}, {"smiles": "CC(OC(=O)c1cc2c(ccc3ccccc32)oc1=O)c1nc2ccccc2s1", "note": "(stereo not given)", "activity change, negative = cytotoxic": "inconclusive: 0.684%"}, {"smiles": "C/C(=N\\Nc1nc(-c2ccccc2O)nc2ccccc12)c1ccccc1", "activity change, negative = cytotoxic": "inactive: 10.5%"}, {"smiles": "CC(C)OCCCNC(=O)C1CCN(S(=O)(=O)N2CCCC2)CC1", "activity change, negative = cytotoxic": "inactive: 3.87%"}, {"smiles": "Cc1ccccc1NC(=O)CSc1nc2ccccc2c(=O)n1C", "Potency": "inconclusive: 20.6 µM [cytotoxic, partial curve, poor fit]"}, {"smiles": "CNc1ccccc1C(C)(C)c1cc(-c2cccc(OC)c2)no1", "Potency": "inconclusive: 23.1 µM [cytotoxic, partial curve]"}, {"smiles": "CCN(Cc1ccccc1)Cc1c(F)cccc1F", "activity change, negative = cytotoxic": "inactive: 4.72%"}, {"smiles": "CC1CCC(C(=O)c2c(O)c3ccccc3oc2=O)CC1", "note": "(stereo not given)", "Potency": "inconclusive: 18.4 µM [cytotoxic, single point]"}, {"smiles": "COc1cccc(C(CNC(=O)c2ccc(Cl)c(S(=O)(=O)N3CCCC3)c2)N(C)C)c1", "note": "(stereo not given)", "Potency": "inconclusive: 16.4 µM [cytotoxic, single point]"}, {"smiles": "CCOc1ccccc1CNC(=O)c1ccc2nc(CCc3ccccc3)oc2c1", "Potency": "inconclusive: 25.9 µM [cytotoxic, single point]"}, {"smiles": "CCOc1cc(C(=O)N2CCN(C/C=C/c3ccccc3)CC2)cc(OCC)c1OCC", "activity change, negative = cytotoxic": "inactive: 1.6%"}, {"smiles": "Cc1cc(C(=O)N/N=C/c2cc(Br)cc(Br)c2OC(=O)c2cccc(F)c2)n[nH]1", "Potency": "inconclusive: 11.6 µM [cytotoxic, partial curve, poor fit]"}, {"smiles": "N#Cc1nc(/C=C/c2ccc(F)cc2)oc1N1CCCCC1", "activity change, negative = cytotoxic": "inactive: -0.0423%"}, {"smiles": "COc1ccc2nc(Sc3c([N+](=O)[O-])nc(C)n3Cc3ccccc3)[nH]c2c1", "Potency": "inconclusive: 29.1 µM [cytotoxic, single point]"}, {"smiles": "COc1ccc(C(CNC(=O)c2cccc(NS(=O)(=O)c3ccc(C)c(F)c3)c2)N2CCCC2)cc1", "note": "(stereo not given)", "Potency": "inconclusive: 18.4 µM [cytotoxic, single point]"}, {"smiles": "CCOc1ccccc1NC(=O)CN1Cc2ccccc2C1=O", "Potency": "inconclusive: 18.4 µM [cytotoxic, single point]"}, {"smiles": "Clc1ccc(CN2CC[C@H]3C=CCc4cccc(c43)C2)cc1", "Potency": "inconclusive: 20.6 µM [cytotoxic, single point]"}, {"smiles": "COC(CN(C(=O)CCl)C(C(=O)NC1CCCCC1)c1ccc(Cl)cc1)OC", "note": "(stereo not given)", "Potency": "inconclusive: 29.1 µM [cytotoxic, single point]"}, {"smiles": "CN(C)c1c(Br)cc(C=O)cc1Br", "Potency": "inconclusive: 16.4 µM [rising, single point]"}, {"smiles": "CCC/C(=N/NC(=O)c1cccc(Cl)c1)c1ccccc1", "activity change, negative = cytotoxic": "inactive: 0.806%"}, {"smiles": "C[C@@H]1CC=C[C@H]2[C@H]1C(=O)N(Cc1ccccc1)[C@H]2c1ccc(-c2ccc(N(C)C)cc2)cc1F", "Potency": "inconclusive: 16.4 µM [cytotoxic, single point]"}, {"smiles": "Cc1ccc(-c2nc3ccc(Br)cn3c2Cc2ccccc2)cc1", "Potency": "inconclusive: 29.1 µM [cytotoxic, single point]"}, {"smiles": "CCCOc1ccccc1C(=O)Nc1ccc(-c2nc3ccc(C)cc3s2)cc1", "activity change, negative = cytotoxic": "inactive: -5.47%"}, {"smiles": "Cc1ccc2c(c1)C(c1ccccc1)N(C(=O)c1cccc([N+](=O)[O-])c1)CC(=O)N2", "note": "(stereo not given)", "activity change, negative = cytotoxic": "inactive: 4.4%"}, {"smiles": "Cc1ccc(-c2csc(NC(=O)C3=NN(c4ccccc4)C(=O)CC3)n2)cc1", "Potency": "inconclusive: 29.1 µM [cytotoxic, single point]"}, {"smiles": "OC(c1ccccc1)(c1nc(-c2csc3ccccc23)cs1)C(F)(F)F", "note": "(stereo not given)", "activity change, negative = cytotoxic": "inactive: 0%"}, {"smiles": "CC(C)(C)c1ccc(S(=O)(=O)N2CC(=O)Nc3ccccc32)cc1", "activity change, negative = cytotoxic": "inactive: -0.572%"}, {"smiles": "Cc1c(Cc2ccc3c(c2)OCO3)sc(NC(=O)C(C)(C)C)c1C#N", "Potency": "inconclusive: 5.8 µM [cytotoxic, full curve, poor fit]"}, {"smiles": "CCOc1cc(N2CCOCC2)c(OCC)cc1NC(=O)CCS(=O)(=O)c1ccc(Cl)cc1", "activity change, negative = cytotoxic": "inactive: -3.55%"}, {"smiles": "COc1ccc2c(CN(C)Cc3ccccc3)cc(=O)oc2c1", "activity change, negative = cytotoxic": "inactive: 0.0302%"}, {"smiles": "CCCOc1ccccc1C1CC(=O)NC2=C1C(=O)CCC2", "note": "(stereo not given)", "Potency": "active: 4.61 µM"}, {"smiles": "N=c1c2c(-c3ccccc3)c(-c3ccccc3)n(Cc3ccco3)c2ncn1CCCN1CCOCC1", "Potency": "active: 20.6 µM"}, {"smiles": "O=C1[C@H]2C(c3ccccc3)=NN(c3ccccc3)[C@H]2C(=O)N1c1ccccc1", "Potency": "inconclusive: 29.1 µM [cytotoxic, single point]"}, {"smiles": "O=c1cc(CSc2ccc(Cl)cc2)nc(-c2ccccn2)[nH]1", "Potency": "active: 13 µM"}, {"smiles": "COCCCC/C(=N\\OCCN)c1ccc(C(F)(F)F)cc1", "Potency": "inconclusive: 29.1 µM [cytotoxic, single point]"}, {"smiles": "COc1ccc(OCc2n(CC(=O)OC3CC(C)CCC3C(C)C)c3ccccc3[n+]2C)cc1", "note": "(stereo not given)", "Potency": "active: 13 µM"}, {"smiles": "CCN(CC)c1ccc(NC(=O)CN2C(=O)CSc3ncccc32)c(C)c1", "Potency": "inconclusive: 2.59 µM [cytotoxic, full curve]"}, {"smiles": "CC1CC(C)C(=O)C(C(CC2CC(=O)NC(=O)C2)OC(=O)CC(=O)c2ccccc2)C1", "note": "(stereo not given)", "Potency": "active: 2.59 µM"}, {"smiles": "O=C(CCC(=O)NC1CC1)Nc1nnc(C2CCCCC2)s1", "Potency": "inconclusive: 23.1 µM [rising, partial curve, poor fit]"}, {"smiles": "O=C(NNC1=Nc2ccccc2SC1)c1cccc([N+](=O)[O-])c1", "Potency": "inconclusive: 25.9 µM [cytotoxic, partial curve, poor fit]"}, {"smiles": "Cc1ccc(OCCSc2nc3ccccc3n2CC(=O)N2CCCCC2)c(C)c1", "Potency": "inconclusive: 25.9 µM [cytotoxic, single point]"}, {"smiles": "COc1cc(NC(=O)/C=C/c2ccccc2)c(C(=O)O)cc1OC", "activity change, negative = cytotoxic": "inactive: 3.41%"}, {"smiles": "Cc1nc2ccc(S(=O)(=O)N(CC(=O)Nc3cccc(C)c3C)Cc3ccccc3)cc2s1", "activity change, negative = cytotoxic": "inactive: 12.9%"}, {"smiles": "O=C(Nc1cccc(Cl)c1)Nc1nnc(CSCCOc2ccc(Cl)cc2)s1", "Potency": "inconclusive: 5.8 µM [cytotoxic, full curve]"}, {"smiles": "CCN1CCN(c2oc(-c3ccccc3C)nc2S(=O)(=O)c2ccccc2)CC1", "activity change, negative = cytotoxic": "inactive: -4.94%"}, {"smiles": "c1coc(Cn2c(SCc3nc4ccccc4[nH]3)nnc2-c2cccs2)c1", "Potency": "inconclusive: 25.9 µM [cytotoxic, single point]"}, {"smiles": "C=COCCNC(=S)N1CCOCCOCCN(C(=S)NCCOC=C)CCOCC1", "Potency": "inconclusive: 9.2 µM [rising, partial curve, poor fit]"}, {"smiles": "CCCCC(=O)N1CCCC(C(=O)OCC)C1", "note": "(stereo not given)", "Potency": "inconclusive: 0.0046 µM [cytotoxic, full curve]"}, {"smiles": "O=C(COc1ncnc2c1cnn2-c1ccccc1)Nc1ccc(S(=O)(=O)N2CCCCC2)cc1", "activity change, negative = cytotoxic": "inactive: -13.3%"}, {"smiles": "COc1ccc(C2Nc3ccccc3C(=O)N2c2cccc3ccccc23)cc1COc1c(C)cccc1C", "note": "(stereo not given)", "Potency": "active: 13 µM"}, {"smiles": "Cc1ccc(-c2nnc(N(C)C(=O)c3cccnc3)s2)cn1", "Potency": "inconclusive: 13 µM [rising, partial curve, poor fit]"}, {"smiles": "COc1ccc(-c2nc(N)ncc2-c2ccc(Cl)cc2)c(O)c1", "Potency": "inconclusive: 16.4 µM [cytotoxic, partial curve, poor fit]"}]}]}
